Results reported in PubChem BioAssay AID1259354 (Paczesny and Yang Labs, IUPUI and University of Michigan, 2018).
Screen size: about 78,000 compounds; about 1,800 (2.3%) were called active. The shares of active, inactive and inconclusive entries below differ from those in the screen. Rule as the data show it: active = inhibition above about 30%; inconclusive = mostly about 10% to 28%; inactive = weaker than that.

Protein sequences, listed by entry. Tags and fused reporters are not part of them. Lines headed by an entry give the natural chain unless they say otherwise; changes in a name come on top.
UniProt Q01638: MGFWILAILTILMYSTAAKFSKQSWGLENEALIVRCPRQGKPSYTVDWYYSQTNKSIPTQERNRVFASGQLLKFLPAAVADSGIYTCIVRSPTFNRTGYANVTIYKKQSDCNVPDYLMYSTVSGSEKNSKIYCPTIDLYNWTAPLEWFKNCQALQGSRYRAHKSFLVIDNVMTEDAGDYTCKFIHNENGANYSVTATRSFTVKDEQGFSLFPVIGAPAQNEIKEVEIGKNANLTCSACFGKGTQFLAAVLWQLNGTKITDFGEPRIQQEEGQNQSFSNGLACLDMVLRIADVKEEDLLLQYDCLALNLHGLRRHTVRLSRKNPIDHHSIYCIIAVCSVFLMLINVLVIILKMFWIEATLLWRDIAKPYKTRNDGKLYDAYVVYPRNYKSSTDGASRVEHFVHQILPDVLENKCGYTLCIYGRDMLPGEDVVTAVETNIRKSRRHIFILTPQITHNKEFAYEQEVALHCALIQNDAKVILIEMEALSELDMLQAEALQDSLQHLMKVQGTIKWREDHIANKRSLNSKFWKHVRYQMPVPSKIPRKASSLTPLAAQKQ

What follows are compounds tested against Interleukin-1 receptor-like 1 (Homo sapiens) (UniProt Q01638) (assay: blocks human ST2 binding to IL-33, primary screen, biochemical, AlphaLISA (AID 1259354)). Conditions: AlphaLISA ST2-Fc/biotin-IL-33 interaction, 1 h; at 17 µM, active compounds read high.

Row | SMILES | inhibition
1 | CCC(C)Oc1c(Cl)cc(/C=C2/NC(=O)NC2=O)cc1OC (configuration not stated) | inconclusive: 20%
2 | O=C(c1cnn2ccccc12)N1CCCC(Cn2cc(C3CCCC3)nn2)C1 (configuration not stated) | inconclusive: 18%
3 | O=C(O)CCC(=O)Nc1ccc(C(=O)O)cc1 | inactive
4 | O=C(O)c1ccc(CSCc2ccco2)cc1 | inconclusive: 15%
5 | Cc1cc(C(=O)Nc2ccc(N3CCOCC3)cc2)ccc1[N+](=O)[O-] | inactive
6 | CCCc1cc(C(=O)NCc2cccs2)no1 | inconclusive: 10%
7 | CCCc1cc(C(=O)N2CCC3(CCCN(CCOC)C3=O)C2)no1 (configuration not stated) | inactive
8 | COc1cc(-c2ncnn2-c2sc3c(c2C#N)CCCCC3)cc(OC)c1OC | inactive
9 | O=C(c1ccncc1)N1C[C@@H]2OCC(=O)N(Cc3ccccn3)[C@@H]2C1 | inconclusive: 21%
10 | CCCc1nnc([C@H]2CCN(C3CCN(C)CC3)C2)o1 | inconclusive: 16%
11 | N#CC1=C(SCc2ccccc2Br)NC(=O)C(C#N)C12CCCCC2 (configuration not stated) | inconclusive: 15%
12 | CC(=O)Nc1ccc(CN2CC[C@H](c3nnc(C)o3)C2)cc1 | inconclusive: 10%
13 | CC1CC(=O)N(Cc2cccc(F)c2)c2ccccc2S1 (configuration not stated) | inconclusive: 15%
14 | Cc1cc(NS(=O)(=O)c2ccccc2)c(Br)c(C)c1O | inconclusive: 11%
15 | Brc1ccc(CN2CCSCC2)cc1 | inconclusive: 11%
16 | COc1ccc(OC)c(NC(=O)C(N)=O)c1 | inconclusive: 19%
17 | O=C(Nc1ccc(O)c(-c2nc3ccccc3o2)c1)c1ccccc1Br | inconclusive: 18%
18 | O=C(Cn1nc2ccccc2n1)N1CCCC(Nc2ccc3c(c2)OCO3)C1 (configuration not stated) | inconclusive: 10%
19 | O=C1C2C3CCC(C3)C2C(=O)N1c1ccc(Cl)c(F)c1 (configuration not stated) | inactive
20 | COc1ccc(C2=N/C(=C\C(C)=C\c3ccccc3)C(=O)O2)cc1[N+](=O)[O-] | inconclusive: 23%
21 | Cc1ccc(Cn2c(Br)nc3c2c(=O)n(C)c(=O)n3C)cc1 | inconclusive: 16%
22 | O=C1CC(Cn2c(=O)oc3ccccc32)c2cnn(Cc3cccnc3)c2N1 (configuration not stated) | inconclusive: 16%
23 | Cc1cccc(NCC(O)Cn2c(C)c(C)c3ccccc32)c1C (configuration not stated) | inconclusive: 18%
24 | O=C1N(c2ccccc2)C(c2ccccc2)N2CCCN12 (configuration not stated) | inconclusive: 22%
25 | O=C(CN1C(=O)C2CCCCN2c2ccc(S(=O)(=O)N3CCCCC3)cc21)NC1CCCC1 (configuration not stated) | inactive
26 | Cc1ccsc1C(=O)N1CCC(n2nccc2NC(=O)c2cccc(F)c2)CC1 | inconclusive: 10%
27 | COCc1cc(C)nc2sc(C(=O)NC3CCCCC3)c(N)c12 | inconclusive: 16%

Arranged by count of non-hydrogen atoms (largest number first): some entries from above.
Row | SMILES | inhibition
20 | COc1ccc(C2=N/C(=C\C(C)=C\c3ccccc3)C(=O)O2)cc1[N+](=O)[O-] | inconclusive: 23%
5 | Cc1cc(C(=O)Nc2ccc(N3CCOCC3)cc2)ccc1[N+](=O)[O-] | inactive
1 | CCC(C)Oc1c(Cl)cc(/C=C2/NC(=O)NC2=O)cc1OC (configuration not stated) | inconclusive: 20%
